The text below walks through data of PMC8458969.

For at least one entry, the source does not settle the construct or the ends of the probe. A negative result means that nothing was seen under these conditions.

The test system of the series is His-GmPGL2. The series can be described thus: EMSA. To be noted: 2x binding buffer: 100 mM Na phosphate pH 7.5, 10 units RNasin, 0.1 mg/ml BSA, 10 mM DTT, 2.5 mg/ml heparin, 300 mM NaCl, 25 C, 30 min, recombinant protein, protein details: His (pCold vector), label: 3' 6-FAM.
Where [1] appears, read: shift reduced by 5, 10, 50 pmol unlabeled competitor.

In the case of “AAAUAUCAUUUGAUUCGCCGAUCCUCAAAAAAAGA [rps14 probe]”, the binding result is reported as “no binding”.
On to “ACUAUCAGGUUUUUUCGGAAAACUUCAUUUAUUCU [ndhB-141424 probe]”, for which the binding result under setting [1] is listed as “binds”.
With “CCUACAGGAACUGUUCAGGACAUUUCAAAAAGGGC [rps16-56313 probe]”, under setting [1], the binding result is recorded as “binds”.
In the case of “CUAGGAACUUUUGCUUGCAUUGUAUCAUUUGGUCU [ndhB-141281 probe]”, under setting [1], the binding result is reported as “binds”.
